Data reported in publication PMC10584835.
Results are given in words; binding and its absence hold for the method and conditions named. For some assays here: Binding seen in cells or lysates may run through a third protein. Some results given as binding are weak or reduced against the parent protein; the word gives no strength. Sequences can lack the tags named with a protein. Blank lines part the entries; values can stand above or below the binder they belong to.

What was measured:
[1] = molecular target: T1, CHFR (checkpoint protein with FHA and Ring domain), human recombinant protein on the AVM BIOMED microarray (human) (UniProt Q96EP1); experiment: peptide or protein array; AVM BIOMED Snapshot Proteomics microarray, 21,065 human recombinant proteins on nitrocellulose-coated slides; incubated 90 min at RT with hVE-cad-GFP (5 ug protein/ml in PBST); GFP fluorescence scanned; both purified
T1 sequence: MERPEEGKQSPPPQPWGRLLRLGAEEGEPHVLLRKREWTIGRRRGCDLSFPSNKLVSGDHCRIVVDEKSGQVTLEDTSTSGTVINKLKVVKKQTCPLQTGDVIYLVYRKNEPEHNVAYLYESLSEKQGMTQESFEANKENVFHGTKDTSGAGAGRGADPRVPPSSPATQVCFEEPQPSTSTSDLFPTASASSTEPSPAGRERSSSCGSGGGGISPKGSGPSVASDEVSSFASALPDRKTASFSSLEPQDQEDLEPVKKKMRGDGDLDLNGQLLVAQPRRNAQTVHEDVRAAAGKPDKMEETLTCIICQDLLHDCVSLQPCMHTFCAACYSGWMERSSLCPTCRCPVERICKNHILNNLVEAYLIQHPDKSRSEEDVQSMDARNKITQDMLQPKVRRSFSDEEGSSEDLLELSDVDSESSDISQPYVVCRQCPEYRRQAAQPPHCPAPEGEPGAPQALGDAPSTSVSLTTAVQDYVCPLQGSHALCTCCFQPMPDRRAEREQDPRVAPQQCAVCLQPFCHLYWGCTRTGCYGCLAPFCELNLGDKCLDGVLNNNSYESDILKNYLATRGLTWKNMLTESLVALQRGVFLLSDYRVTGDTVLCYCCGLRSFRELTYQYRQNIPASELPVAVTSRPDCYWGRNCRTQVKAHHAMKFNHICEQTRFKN

[2] = molecular target: T2, N-terminal eGFP fused wild-type human CHFR (human) (UniProt Q96EP1); experiment: co-IP; anti-GFP agarose beads (GFP-Trap) pull-down from lysates of HMEC transfected with eGFP-CHFR constructs, 48 h after transfection; 150 ug lysate protein, 2 h at 4 C; immunoblot for endogenous VE-cadherin; ratio of VE-cadherin to GFP-CHFR quantified
T2 sequence: T1 sequence

binding [1]: binds
B1: C-terminal green fluorescent protein (GFP)-tagged hVE-cadherin (protein, UniProt P33151 48-784)
chain: DWIWNQMHIDEEKNTSLPHHVGKIKSSVSRKNAKYLLKGEYVGKVFRVDAETGDVFAIERLDRENISEYHLTAVIVDKDTGENLETPSSFTIKVHDVNDNWPVFTHRLFNASVPESSAVGTSVISVTAVDADDPTVGDHASVMYQILKGKEYFAIDNSGRIITITKSLDREKQARYEIVVEARDAQGLRGDSGTATVLVTLQDINDNFPFFTQTKYTFVVPEDTRVGTSVGSLFVEDPDEPQNRMTKYSILRGDYQDAFTIETNPAHNEGIIKPMKPLDYEYIQQYSFIVEATDPTIDLRYMSPPAGNRAQVIINITDVDEPPIFQQPFYHFQLKENQKKPLIGTVLAMDPDAARHSIGYSIRRTSDKGQFFRVTKKGDIYNEKELDREVYPWYNLTVEAKELDSTGTPTGKESIVQVHIEVLDENDNAPEFAKPYQPKVCENAVHGQLVLQISAIDKDITPRNVKFKFILNTENNFTLTDNHDNTANITVKYGQFDREHTKVHFLPVVISDNGMPSRTGTSTLTVAVCKCNEQGEFTFCEDMAAQVGVSIQAVVAILLCILTITVITLLIFLRRRLRKQARAHGKSVPEIHEQLVTYDEEGGGEMDTTSYDVSVLNSVRRGGAKPPRPALDARPSLYAQVQKPPRHAPGAHGGPGEMAAMIEVKKDEADHDGDGPPYDTLHIYGYEGSESIAESLSSLGTDSSDSDVDYDFLNDWGPRFKMLAELYGSDPREELLY

binding [2]: binds
B2: VE-cadherin, endogenous in HMEC (protein, UniProt P33151 48-784)
chain: B1 chain
